Measurements published in the supplement of paper PMC12823440, “Inhibitors supercharge kinase turnover through native proteolytic circuits” (Nature, 2025).
Counter-ions that a name gives are not always drawn. This is one part of the list. Hit calls seldom repeat between salt and free forms of one compound.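 In K562 cells expressing nanoluciferase-fused kinases, luminescence was recorded at 4 h intervals between 2 and 18 h, normalized as percent of control with DMSO at 100% and a positive control at 0%. A significant (2 sigma) signal drop marks a time point as decreased. The authors' rule for a hit is not shown and takes in more than the number of time points.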

Each compound was assayed against EGFR_G719S (UniProt P00533) (assay: kinase-Nluc reporter destabilization hit call (1 = scored as downregulated) (binary); higher = compound decreases kinase abundance). Conditions: K562; 2-18 h.

kinase-Nluc reporter destabilization hit call, inactive:
CC#CC(=O)N[C@H]1CCCN(c2c(F)cc(C(N)=O)c3[nH]c(C)c(C)c23)C1 [Branebrutinib] (10 µM) 0
O=C1NC(=NCc2cccs2)S/C1=C\c1ccc2ncccc2c1 (10 µM) 0
Cn1c(=O)n(-c2ccc(C(C)(C)C#N)cc2)c2c3cc(-c4cnc5ccccc5c4)ccc3ncc21 [Dactolisib (Tosylate)] (10 µM) 0
COC(=O)c1ccc2c(C(=Nc3ccc(N(C)C(=O)CN4CCN(C)CC4)cc3)c3ccccc3)c(O)[nH]c2c1 [Nintedanib] (2.5 µM) 0
COc1cc2ncnc(Nc3ccc(O)cc3)c2cc1OC (10 µM) 0
O=C(c1ccc(-c2ccc(Cl)cc2)o1)N(Cc1ccccn1)c1ccc(N2CCNCC2)cc1 [MK2-IN-1 (hydrochloride)] (10 µM) 0
CN1CCN(S(=O)(=O)c2ccc(-c3cnc(N)c(C(=O)Nc4cccnc4)n3)cc2)CC1 (10 µM) 0
CN(C)C[C@@H]1CCn2cc(c3ccccc32)C2=C(C(=O)NC2=O)c2cn(c3ccccc23)CCO1 [Ruboxistaurin (hydrochloride)] (10 µM) 0
COc1ccc(Oc2cc(NCCC(F)(F)F)c3ncc(-c4ccc(C(=O)NC5CC5)c(C)c4)n3n2)c(F)c1F (2.5 µM) 0
CCCCNc1ncc(-c2ccc(CN3CCOCC3)cn2)c(NC2CCC(O)CC2)n1 (stereo unspecified) (10 µM) 0
O=C(Nc1cc(C(F)(F)F)ccc1N1CCN(Cc2ccccn2)CC1)c1ccc(-c2ccncc2)o1 (10 µM) 0

Two records picked at random from the list so far, as already listed:
kinase-Nluc reporter destabilization hit call, inactive:
CC#CC(=O)N[C@H]1CCCN(c2c(F)cc(C(N)=O)c3[nH]c(C)c(C)c23)C1 [Branebrutinib] (10 µM) 0
CN1CCN(S(=O)(=O)c2ccc(-c3cnc(N)c(C(=O)Nc4cccnc4)n3)cc2)CC1 (10 µM) 0
